Test results from the supplement of paper PMC10849652.
The other results are listed elsewhere or left out.

By UniProt entry, the sequences of proteins in these tests, tags left out. Where a name states a change or a piece, a line headed by the entry shows the natural chain unless it says otherwise.
UniProt P31946: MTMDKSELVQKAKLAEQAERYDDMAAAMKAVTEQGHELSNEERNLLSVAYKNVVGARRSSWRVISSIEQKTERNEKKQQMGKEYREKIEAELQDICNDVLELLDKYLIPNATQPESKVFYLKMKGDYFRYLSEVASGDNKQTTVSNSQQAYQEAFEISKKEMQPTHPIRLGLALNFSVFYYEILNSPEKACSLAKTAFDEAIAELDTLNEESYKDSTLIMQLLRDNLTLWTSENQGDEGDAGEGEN
UniProt Q8IWT0: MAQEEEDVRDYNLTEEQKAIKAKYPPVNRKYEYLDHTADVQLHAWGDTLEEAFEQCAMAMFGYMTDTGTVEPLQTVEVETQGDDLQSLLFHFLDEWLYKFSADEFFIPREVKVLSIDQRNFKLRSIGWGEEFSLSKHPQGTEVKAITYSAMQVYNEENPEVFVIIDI
UniProt P47974: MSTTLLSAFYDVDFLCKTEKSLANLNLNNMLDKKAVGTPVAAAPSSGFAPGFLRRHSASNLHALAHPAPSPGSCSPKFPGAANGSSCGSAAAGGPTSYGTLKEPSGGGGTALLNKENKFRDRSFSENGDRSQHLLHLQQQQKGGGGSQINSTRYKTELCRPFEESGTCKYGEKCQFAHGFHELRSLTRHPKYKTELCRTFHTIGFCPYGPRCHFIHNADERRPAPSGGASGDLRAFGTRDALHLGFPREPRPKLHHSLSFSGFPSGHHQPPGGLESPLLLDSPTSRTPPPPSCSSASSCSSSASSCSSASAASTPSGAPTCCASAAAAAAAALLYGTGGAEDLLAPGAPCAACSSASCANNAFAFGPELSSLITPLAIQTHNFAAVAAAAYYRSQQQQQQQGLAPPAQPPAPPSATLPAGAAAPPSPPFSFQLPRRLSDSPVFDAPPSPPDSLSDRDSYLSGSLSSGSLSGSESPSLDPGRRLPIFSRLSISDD
UniProt Q8IX07: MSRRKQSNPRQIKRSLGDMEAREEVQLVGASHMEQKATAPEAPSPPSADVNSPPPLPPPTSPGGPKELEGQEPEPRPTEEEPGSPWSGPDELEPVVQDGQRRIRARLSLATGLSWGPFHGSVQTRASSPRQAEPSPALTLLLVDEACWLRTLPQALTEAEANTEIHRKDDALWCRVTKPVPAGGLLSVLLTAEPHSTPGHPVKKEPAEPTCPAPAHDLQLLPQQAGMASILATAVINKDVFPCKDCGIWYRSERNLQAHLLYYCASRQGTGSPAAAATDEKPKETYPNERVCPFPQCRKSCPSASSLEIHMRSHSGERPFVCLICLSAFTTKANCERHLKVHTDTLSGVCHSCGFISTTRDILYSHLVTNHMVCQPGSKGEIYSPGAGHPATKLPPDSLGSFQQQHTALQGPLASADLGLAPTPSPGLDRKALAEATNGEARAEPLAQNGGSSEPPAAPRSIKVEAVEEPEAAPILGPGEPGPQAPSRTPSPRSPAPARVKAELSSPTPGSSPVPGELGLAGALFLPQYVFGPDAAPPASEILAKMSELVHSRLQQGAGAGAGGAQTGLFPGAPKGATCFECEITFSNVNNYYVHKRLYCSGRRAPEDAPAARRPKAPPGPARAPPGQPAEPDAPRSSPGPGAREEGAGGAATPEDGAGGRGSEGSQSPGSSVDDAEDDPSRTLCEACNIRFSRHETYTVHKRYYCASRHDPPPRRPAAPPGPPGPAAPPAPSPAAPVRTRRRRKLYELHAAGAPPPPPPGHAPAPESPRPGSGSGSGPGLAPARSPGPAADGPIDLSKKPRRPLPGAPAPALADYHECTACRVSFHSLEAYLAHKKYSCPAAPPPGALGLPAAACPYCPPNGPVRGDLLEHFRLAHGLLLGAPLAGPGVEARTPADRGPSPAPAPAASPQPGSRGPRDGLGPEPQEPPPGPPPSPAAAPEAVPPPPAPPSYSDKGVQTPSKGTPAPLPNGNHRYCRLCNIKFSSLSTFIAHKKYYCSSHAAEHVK
UniProt Q8WV99: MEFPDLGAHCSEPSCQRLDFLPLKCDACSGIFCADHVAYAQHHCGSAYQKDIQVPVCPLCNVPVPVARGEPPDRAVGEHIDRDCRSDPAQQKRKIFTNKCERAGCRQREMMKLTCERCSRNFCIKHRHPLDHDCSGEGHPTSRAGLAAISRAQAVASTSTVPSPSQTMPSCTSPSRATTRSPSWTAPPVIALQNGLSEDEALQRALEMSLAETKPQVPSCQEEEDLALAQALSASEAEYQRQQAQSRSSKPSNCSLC
UniProt O96006: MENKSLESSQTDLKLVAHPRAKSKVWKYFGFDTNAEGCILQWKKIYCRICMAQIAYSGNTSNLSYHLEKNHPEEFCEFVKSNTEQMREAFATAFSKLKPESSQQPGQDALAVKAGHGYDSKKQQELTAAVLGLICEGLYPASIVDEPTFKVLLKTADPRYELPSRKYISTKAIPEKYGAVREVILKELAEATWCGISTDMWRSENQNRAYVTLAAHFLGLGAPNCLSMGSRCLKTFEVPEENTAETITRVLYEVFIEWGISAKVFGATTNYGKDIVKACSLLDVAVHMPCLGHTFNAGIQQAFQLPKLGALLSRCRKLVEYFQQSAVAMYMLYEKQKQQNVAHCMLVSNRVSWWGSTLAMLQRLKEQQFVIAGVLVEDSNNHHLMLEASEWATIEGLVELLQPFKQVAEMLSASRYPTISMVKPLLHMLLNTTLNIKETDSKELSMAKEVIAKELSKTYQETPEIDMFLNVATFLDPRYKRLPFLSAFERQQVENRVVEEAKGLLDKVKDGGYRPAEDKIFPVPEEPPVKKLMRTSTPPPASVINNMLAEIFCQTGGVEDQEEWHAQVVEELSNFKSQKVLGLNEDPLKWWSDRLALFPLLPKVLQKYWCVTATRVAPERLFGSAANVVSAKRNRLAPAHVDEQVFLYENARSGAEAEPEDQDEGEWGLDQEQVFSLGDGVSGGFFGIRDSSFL
UniProt P25490, whole entry, looked up: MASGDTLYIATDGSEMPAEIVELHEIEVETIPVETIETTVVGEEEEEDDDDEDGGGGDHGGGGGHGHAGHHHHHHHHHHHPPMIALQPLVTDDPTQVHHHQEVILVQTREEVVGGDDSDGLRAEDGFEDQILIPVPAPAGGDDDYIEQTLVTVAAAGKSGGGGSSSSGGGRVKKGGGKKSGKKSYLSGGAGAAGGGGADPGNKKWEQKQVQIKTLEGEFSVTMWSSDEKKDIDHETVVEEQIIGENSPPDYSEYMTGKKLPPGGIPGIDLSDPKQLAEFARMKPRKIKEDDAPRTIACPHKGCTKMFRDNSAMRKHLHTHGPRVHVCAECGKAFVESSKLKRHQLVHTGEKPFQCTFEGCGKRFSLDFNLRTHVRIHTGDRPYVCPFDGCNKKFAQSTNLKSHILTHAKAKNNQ
UniProt O43592: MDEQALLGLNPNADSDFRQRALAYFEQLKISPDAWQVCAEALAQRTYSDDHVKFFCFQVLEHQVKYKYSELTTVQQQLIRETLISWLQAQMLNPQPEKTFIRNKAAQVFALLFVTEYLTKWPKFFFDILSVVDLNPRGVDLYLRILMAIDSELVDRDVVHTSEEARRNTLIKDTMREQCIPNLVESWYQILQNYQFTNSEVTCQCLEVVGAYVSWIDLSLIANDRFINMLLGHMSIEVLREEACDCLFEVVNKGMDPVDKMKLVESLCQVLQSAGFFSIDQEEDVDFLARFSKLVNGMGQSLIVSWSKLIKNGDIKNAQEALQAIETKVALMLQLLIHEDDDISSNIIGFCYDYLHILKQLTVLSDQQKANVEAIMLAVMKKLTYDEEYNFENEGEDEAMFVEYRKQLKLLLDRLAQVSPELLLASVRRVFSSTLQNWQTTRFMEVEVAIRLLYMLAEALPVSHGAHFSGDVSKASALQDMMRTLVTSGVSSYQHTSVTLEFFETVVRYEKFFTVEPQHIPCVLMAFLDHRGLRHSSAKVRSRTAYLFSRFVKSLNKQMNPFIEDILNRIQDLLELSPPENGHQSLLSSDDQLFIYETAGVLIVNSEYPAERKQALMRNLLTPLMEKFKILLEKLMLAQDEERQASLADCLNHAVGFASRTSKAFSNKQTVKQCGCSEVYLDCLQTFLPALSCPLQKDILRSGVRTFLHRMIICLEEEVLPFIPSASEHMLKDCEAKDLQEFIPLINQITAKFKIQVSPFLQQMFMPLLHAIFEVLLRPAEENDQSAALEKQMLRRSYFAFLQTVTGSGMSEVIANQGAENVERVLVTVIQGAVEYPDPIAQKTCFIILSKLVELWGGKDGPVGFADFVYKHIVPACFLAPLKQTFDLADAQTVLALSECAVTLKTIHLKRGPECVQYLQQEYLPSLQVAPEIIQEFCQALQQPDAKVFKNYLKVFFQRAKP
UniProt Q9ULM3: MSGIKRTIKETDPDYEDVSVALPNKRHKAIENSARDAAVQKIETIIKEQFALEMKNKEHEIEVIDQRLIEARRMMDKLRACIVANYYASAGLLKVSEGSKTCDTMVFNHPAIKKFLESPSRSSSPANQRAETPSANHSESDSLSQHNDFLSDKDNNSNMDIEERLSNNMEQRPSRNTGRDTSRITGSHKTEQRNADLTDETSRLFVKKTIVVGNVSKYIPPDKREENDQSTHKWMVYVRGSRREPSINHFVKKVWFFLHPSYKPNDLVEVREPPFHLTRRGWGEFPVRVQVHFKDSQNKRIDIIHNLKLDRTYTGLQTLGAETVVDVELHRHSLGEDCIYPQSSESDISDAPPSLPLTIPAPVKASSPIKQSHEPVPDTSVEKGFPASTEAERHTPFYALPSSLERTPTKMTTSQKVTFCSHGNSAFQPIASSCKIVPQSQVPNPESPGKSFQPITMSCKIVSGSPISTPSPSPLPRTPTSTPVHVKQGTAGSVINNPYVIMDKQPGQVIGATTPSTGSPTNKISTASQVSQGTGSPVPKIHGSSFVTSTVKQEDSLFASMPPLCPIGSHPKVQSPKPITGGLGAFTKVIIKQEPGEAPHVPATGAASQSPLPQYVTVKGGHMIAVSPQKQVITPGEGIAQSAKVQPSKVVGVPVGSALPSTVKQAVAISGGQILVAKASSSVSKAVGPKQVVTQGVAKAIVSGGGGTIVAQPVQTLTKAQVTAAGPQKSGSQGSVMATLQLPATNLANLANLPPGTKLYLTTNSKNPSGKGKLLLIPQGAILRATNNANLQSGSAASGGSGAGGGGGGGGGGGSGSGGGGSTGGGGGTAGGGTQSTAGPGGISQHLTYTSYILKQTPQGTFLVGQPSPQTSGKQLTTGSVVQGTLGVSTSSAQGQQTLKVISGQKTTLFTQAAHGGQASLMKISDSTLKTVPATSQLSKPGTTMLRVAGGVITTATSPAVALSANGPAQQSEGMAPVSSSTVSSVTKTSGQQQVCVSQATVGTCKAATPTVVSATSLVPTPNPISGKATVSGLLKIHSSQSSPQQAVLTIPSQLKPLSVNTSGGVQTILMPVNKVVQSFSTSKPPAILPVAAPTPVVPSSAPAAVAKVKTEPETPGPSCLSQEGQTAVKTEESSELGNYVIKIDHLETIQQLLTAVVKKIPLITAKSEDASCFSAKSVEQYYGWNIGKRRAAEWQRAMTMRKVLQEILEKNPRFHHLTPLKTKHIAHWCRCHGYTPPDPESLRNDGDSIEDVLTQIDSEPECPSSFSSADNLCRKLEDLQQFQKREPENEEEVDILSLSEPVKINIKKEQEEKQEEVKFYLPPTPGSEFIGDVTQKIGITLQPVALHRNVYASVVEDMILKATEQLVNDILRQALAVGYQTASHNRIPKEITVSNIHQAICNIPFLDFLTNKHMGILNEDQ
UniProt Q8IZ13: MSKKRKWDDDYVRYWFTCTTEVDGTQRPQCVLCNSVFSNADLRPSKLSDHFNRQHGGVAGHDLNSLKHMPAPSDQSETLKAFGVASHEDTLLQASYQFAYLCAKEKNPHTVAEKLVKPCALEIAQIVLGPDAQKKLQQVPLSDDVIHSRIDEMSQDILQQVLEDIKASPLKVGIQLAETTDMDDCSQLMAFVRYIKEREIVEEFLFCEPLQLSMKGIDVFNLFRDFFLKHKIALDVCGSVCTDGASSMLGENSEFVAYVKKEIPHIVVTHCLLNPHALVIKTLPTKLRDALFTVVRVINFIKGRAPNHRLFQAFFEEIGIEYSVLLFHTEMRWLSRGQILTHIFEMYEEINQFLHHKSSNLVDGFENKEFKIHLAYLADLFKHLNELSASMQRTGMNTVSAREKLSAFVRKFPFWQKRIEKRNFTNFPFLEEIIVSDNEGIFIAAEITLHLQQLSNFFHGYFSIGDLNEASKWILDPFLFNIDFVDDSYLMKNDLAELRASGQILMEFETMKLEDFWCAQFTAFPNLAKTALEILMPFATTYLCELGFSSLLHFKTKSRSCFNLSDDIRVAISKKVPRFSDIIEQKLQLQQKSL
UniProt P67809, whole entry, looked up: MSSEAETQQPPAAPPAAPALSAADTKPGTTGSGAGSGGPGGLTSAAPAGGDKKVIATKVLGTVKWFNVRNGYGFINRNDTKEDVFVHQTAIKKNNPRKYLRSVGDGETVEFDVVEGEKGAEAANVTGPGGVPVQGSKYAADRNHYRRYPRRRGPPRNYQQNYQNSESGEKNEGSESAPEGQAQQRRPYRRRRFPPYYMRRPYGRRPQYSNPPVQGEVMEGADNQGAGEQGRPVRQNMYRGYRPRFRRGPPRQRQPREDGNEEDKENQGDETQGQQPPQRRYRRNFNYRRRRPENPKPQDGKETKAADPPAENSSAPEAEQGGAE

Legend:
Assay in all cases: log2 fold change, soluble protein after heating vs DMSO (PISA); higher = thermal stabilisation; K562 lysate, 10 uM; active = over 0.2 and 3.5 SD of the protein, either way, in both replicates (recomputed)
[1] = compound: C1=CC=C(C=C1)[C@H](COC2=CC3=C(C=C2)NC(=O)N3)NC(=O)C4=CC=CN(C4=O)CC5=CC(=C(C=C5)F)F
How it was run: (§1)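 Quantification was by TMTpro 16plex LC-MS/MS with equalised channel sums, applied to the supernatant after 21,000xg for 90 min. Samples were crude K562 extract at 1 mg/mL protein in PBS pH 7.4 with 1 mM MgCl2, treated with 10 μM compound for 30 min, heated for 3 min across 48°C-58°C, pooled and brought to 0.5% NP-40 at 4°C. Values are log-two fold changes in thermal stability relative to solvent controls, from duplicates.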

[2] = compound: CC1=C(SC2=C1C(=N[C@H](C3=NN=C(N32)C)CC(=O)N)C4=CC=C(C=C4)Cl)C
How it was run: as §1

[3] = compound: CC1=C2C(=CC=C1)N=C(N(C2=O)C3=CC=CC=C3C)CN4C=NC5=C(N=CN=C54)N
How it was run: as §1

[4] = compound: Cc1sc2c(c1C)C(c1ccc(Cl)cc1)=N[C@@H](CC(=O)OC(C)(C)C)c1nnc(C)n1-2
How it was run: as §1

[5] = compound: c1ccc([C@@H]2C[C@H]2NC2CCNCC2)cc1
How it was run: as §1

Measured: log2 fold change

ZFYVE21 isoform 2 (UniProt Q9BQ24)
inactive: [1] -0.01 | [2] 0.044 | [3] -0.065 | [4] -0.076 | [5] -0.012

ZFYVE27 isoform 2 (UniProt Q5T4F4)
inactive: [1] 0.134 | [2] -0.013 | [3] 0.098 | [4] -0.124

YWHAB (UniProt P31946)
inactive: [1] -0.005 | [2] 0.006 | [3] -0.01 | [4] 0.048 | [5] 0.033

ZBTB8OS (UniProt Q8IWT0)
inactive: [1] -0.043 | [2] 0.005 | [3] -0.017 | [4] -0.013 | [5] -0.001

ZDHHC5 (UniProt Q9C0B5)
inactive: [1] -0.015 | [2] 0.023 | [3] -0.004 | [4] -0.032 | [5] -0.023

YDJC (UniProt A8MPS7)
inactive: [1] 0.001 | [2] -0.012 | [3] -0.003 | [4] 0.012 | [5] 0.018

ZFAND3 (UniProt Q9H8U3)
inactive: [1] -0.016 | [2] 0.055 | [3] -0.011 | [4] -0.083 | [5] 0.043

YWHAZ (UniProt E7EX29)
inactive: [1] 0.047 | [2] -0.02

ZFP36L2 (UniProt P47974)
inactive: [1] 0.025 | [2] 0.029 | [3] -0.083 | [4] -0.192 | [5] -0.032

ZFPM1 (UniProt Q8IX07)
inactive: [1] 0.073 | [2] -0.033 | [3] -0.012 | [4] -0.036 | [5] 0.078

ZFAND2B (UniProt Q8WV99)
inactive: [1] -0.017 | [2] 0.177 | [3] -0.023 | [4] -0.044 | [5] -0.219

XRN2 (UniProt Q9H0D6)
inactive: [1] 0.037 | [2] -0.029 | [3] -0.015 | [4] 0.019 | [5] -0.009

ZBED1 (UniProt O96006)
inactive: [1] 0.081 | [2] 0.008 | [3] -0.005 | [4] -0.035 | [5] 0.046

ZC3H18 (UniProt E7ERS3)
inactive: [1] 0.01 | [2] -0.005 | [3] -0.001 | [4] 0.002 | [5] -0.064

XRCC1 (UniProt F5H8D7)
inactive: [1] 0.138 | [2] 0.022 | [3] 0.099 | [4] -0.031

ZFPL1 (UniProt O95159)
inactive: [1] 0.039 | [2] 0.048 | [3] -0.006 | [4] 0.136 | [5] -0.024

Fetched one by one from the list above, 2 records:
ZFYVE21 isoform 2 (UniProt Q9BQ24)
inactive: [1] -0.01 | [2] 0.044 | [3] -0.065 | [4] -0.076 | [5] -0.012

ZFPL1 (UniProt O95159)
inactive: [1] 0.039 | [2] 0.048 | [3] -0.006 | [4] 0.136 | [5] -0.024

(further entries)

XRCC6 (UniProt P12956)
inactive: [1] -0.013 | [2] 0.015 | [3] 0.009 | [4] 0.01 | [5] 0.014

YWHAQ (UniProt P27348)
inactive: [1] 0.002 | [2] 0.021 | [3] -0.001 | [4] 0.076 | [5] 0.181

YY1 (UniProt P25490)
inactive: [1] -0.002 | [2] -0.009 | [3] 0.008 | [4] 0.016 | [5] 0.046

XYLB (UniProt O75191)
inactive: [1] -0.032 | [2] -0.072 | [3] 0.004 | [4] 0.031 | [5] -0.051

YBX2 (UniProt Q9Y2T7)
inactive: [1] -0.181 | [2] -0.123

XPOT (UniProt O43592)
inactive: [1] -0.017 | [2] 0.008 | [3] 0.037 | [4] 0.003 | [5] 0.021

ZCCHC9 (UniProt Q8N567)
inactive: [1] 0.105 | [2] 0.029 | [3] -0.141 | [4] 0.01

ZFHX4 isoform 5 (UniProt Q86UP3)
inactive: [1] 0.027 | [2] 0.203

YEATS2 (UniProt Q9ULM3)
inactive: [1] 0.028 | [2] 0.128 | [3] 0.045

ZBED8 (UniProt Q8IZ13)
inactive: [1] -0.089 | [2] 0.142 | [3] -0.108 | [4] 0.01

YBX1 (UniProt P67809)
inactive: [1] 0.02 | [2] 0.012 | [3] -0.026 | [4] -0.044 | [5] 0.037
